Data published in patent US20050009137A1 (CEDARS SINAI MEDICAL CENTER, published 2005).
These are yes or no findings as the source states them, for the method shown. Some results given as binding are weak or reduced against the parent protein; the word gives no strength.

Amino acid sequences for entries named in this document (tags omitted). A change or cut given only in a name is not applied to a line headed by its entry.
UniProt P04386: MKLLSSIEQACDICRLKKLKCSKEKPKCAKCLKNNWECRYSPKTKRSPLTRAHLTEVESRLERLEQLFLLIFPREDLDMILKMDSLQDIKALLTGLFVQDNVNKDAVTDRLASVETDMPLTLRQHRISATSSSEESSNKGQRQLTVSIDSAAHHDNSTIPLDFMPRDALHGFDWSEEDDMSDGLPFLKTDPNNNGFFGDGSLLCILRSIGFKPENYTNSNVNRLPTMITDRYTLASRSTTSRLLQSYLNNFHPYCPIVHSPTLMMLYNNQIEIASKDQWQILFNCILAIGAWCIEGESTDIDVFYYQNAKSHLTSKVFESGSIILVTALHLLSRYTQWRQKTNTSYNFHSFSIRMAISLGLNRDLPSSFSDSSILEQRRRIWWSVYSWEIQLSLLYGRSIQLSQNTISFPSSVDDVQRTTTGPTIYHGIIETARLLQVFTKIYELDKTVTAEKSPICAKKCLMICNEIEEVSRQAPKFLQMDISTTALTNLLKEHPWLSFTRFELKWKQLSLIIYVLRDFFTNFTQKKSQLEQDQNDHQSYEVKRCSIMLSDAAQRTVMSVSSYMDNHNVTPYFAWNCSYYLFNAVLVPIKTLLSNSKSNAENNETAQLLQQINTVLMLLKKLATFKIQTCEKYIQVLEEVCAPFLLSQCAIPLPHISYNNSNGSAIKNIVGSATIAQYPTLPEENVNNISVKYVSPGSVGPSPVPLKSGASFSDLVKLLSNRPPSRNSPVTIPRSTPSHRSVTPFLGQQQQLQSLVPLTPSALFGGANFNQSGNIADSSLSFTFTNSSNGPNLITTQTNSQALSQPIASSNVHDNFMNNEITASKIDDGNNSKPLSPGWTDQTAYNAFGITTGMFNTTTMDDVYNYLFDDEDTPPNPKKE
UniProt P04792: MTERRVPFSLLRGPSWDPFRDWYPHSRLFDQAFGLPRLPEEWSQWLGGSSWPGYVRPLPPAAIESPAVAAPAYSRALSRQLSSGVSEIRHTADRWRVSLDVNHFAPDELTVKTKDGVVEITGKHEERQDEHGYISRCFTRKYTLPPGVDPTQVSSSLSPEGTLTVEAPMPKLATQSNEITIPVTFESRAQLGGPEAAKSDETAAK

Experiments:
[1] = target: GAL4 DNA binding domain-ERα fusion protein (GAL4 DNA-BD/ER) (UniProt P04386); experiment: yeast two-hybrid in AH109 yeast, growth selection with E2, tamoxifen or vehicle (FIG. 6B)
[2] = target: GAL4 DNA binding domain-ERα fusion protein (GAL4 DNA-BD/ER) (UniProt P04386); experiment: yeast two-hybrid (FIG. 6B)

binding [1]: binds | binding [2]: binds
Substance: GAL4 DNA activation domain-hsp27 fusion (GAL4 DNA-AD/hsp27) (from UniProt P04792 1-205)
